“And” between values parts separate entries of the source, which are not always exact repeats. Equal entries are not always repeated. This continues a long series; more values of the same kind are listed elsewhere.
Biological target: T1, SBC2 (Homo sapiens, UniProt O14508)
T1 construct: SOCS2 (amino acids 32–198); His6 (N, cleaved yes); made in house; host or cells: E. coli BL21(DE3)
Assay: Covalent fluorescence polarization (FP) probe displacement assay
Type: binding
Text: With the specific covalent modification of Cys111 established, we decided to fully characterize MN551 as a covalent SOCS2 inhibitor. […] (Fig. 2g, h, Supplementary Fig. 9). Due to the covalent nature of the competing inhibitor, a time-dependent reduction in the fraction of protein-bound probe is observed. […] This value illustrates reasonable specificity for a covalent inhibitor, with nonetheless scope for future optimization. In addition to characterizing the kinetic covalency parameters, we have also assessed the stability of the MN551 by monitoring its reactivity (half-life >70 min) with reduced glutathione (GSH) (Supplementary Fig. 10)[35].
To monitor the SBC2-ligand binding kinetics we designed a fluorescein-labeled small-molecule probe - compound 26. The fluorescence polarization (anisotropy) of a threefold serial dilution of 50 µM SBC2 in 10 nM of the probe in 100 mM HEPES pH 7.5, 50 mM NaCl, 0.5 mM TCEP, 2% DMSO was measured to determine the KL (Supplementary Fig. 9A) (BMG Labtech PHERAstar – firmware v1.33). Protein titration and the curves were fitted using GraphPad Prism 9, using one-site fitting models to determine the probe binding constant, KL. Samples were run in triplicate in 384 well plates, using a total volume per well of 16 μL. The bound fraction of the probe is measure using the equation:1 Fb=Af−A/Af−Ab Where,
A time-dependent reduction in probe anisotropy were measured for a 2-fold serial dilution of […] compound MN551 in 10 nM probe +300 μM SBC2. To determine the initial reversible binding affinity, the initial bound fraction of the probe at time = 0, Fbo (the y-intercept in Fb v/s Time plot, Supplementary Fig. 9B) was plotted against MN551 concentration, and the obtained IC50 is then converted to Ki (Supplementary Fig. 9C)[17]. The slope from Fb versus time graph when divided by Fbo gives rate of covalency, kobs. A plot of kobs v/s MN551 concentration using Michaelis–Menten model of GraphPad Prism 9, provides the parameters kinact (maximum potential rate of inactivation) and KI (concentration of MN551 at which kobs = kinact/2) (Supplementary Fig. 9D, E).
The observed first-order rate constant, kobs is related to KI and kinact by the equation:2 kobs=kinactI/KI+I
At [I]«[KI] the above equation is converted to3 […]
The slope from the plot of kobs against concentration of MN551 gives us the covalent efficiency parameter kinact/KI (Supp Fig. 9F)[30],[33].

Amino acid sequences for entries named in this document (tags omitted). Residues count along the entry.
UniProt O14508, 32-198: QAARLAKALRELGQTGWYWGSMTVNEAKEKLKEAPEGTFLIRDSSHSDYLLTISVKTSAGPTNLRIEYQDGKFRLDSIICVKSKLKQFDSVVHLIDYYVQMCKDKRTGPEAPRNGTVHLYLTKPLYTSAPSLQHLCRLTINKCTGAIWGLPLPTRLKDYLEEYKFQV

[1] = MN551 714.286 nM, Cycle 17 (80 min), n=1
[2] = MN551 714.286 nM, Cycle 18 (85 min), n=1
[3] = MN551 714.286 nM; Cycle 7 (30 min)
[4] = MN551 714.286 nM; Cycle 8 (35 min)
[5] = MN551 714.286 nM; Cycle 9 (40 min)
[6] = MN551 714.286 nM; Cycle 10 (45 min)
[7] = MN551 714.286 nM; Cycle 11 (50 min)
[8] = MN551 714.286 nM; Cycle 13 (60 min); n=1
[9] = MN551 714.286 nM; Cycle 14 (65 min); n=1
[10] = MN551 714.286 nM; Cycle 15 (70 min); n=1
[11] = MN551 714.286 nM; Cycle 16 (75 min); n=1
[12] = MN551 781.25 nM, Cycle 8 (35 min)
[13] = MN551 781.25 nM, Cycle 9 (40 min)
[14] = MN551 781.25 nM, Cycle 10 (45 min)
[15] = MN551 781.25 nM; Cycle 6 (25 min)
[16] = MN551 781.25 nM; Cycle 7 (30 min)
[17] = MN551 781.25 nM; Cycle 8 (35 min)
[18] = MN551 781.25 nM; Cycle 9 (40 min)
[19] = MN551 781.25 nM; Cycle 10 (45 min)
[20] = MN551 781.25 nM; Cycle 11 (50 min)
[21] = MN551 781.25 nM; Cycle 12 (55 min); n=1
[22] = MN551 781.25 nM; Cycle 13 (60 min); n=1
[23] = MN551 781.25 nM; Cycle 14 (65 min); n=1
[24] = MN551 781.25 nM; Cycle 15 (70 min); n=1
[25] = MN551 781.25 nM; Cycle 16 (75 min); n=1

O=C(CCl)Nc1cccc(CNC(=O)[C@H](Cc2ccc(OP(=O)(O)O)cc2)NC(=O)Cc2ccc(F)cc2)c1 [MN551]
Anisotropy [1]: 237.9 and 238.6 and 232.7 | Anisotropy based on Raw Data (485) [1]: 243.3 and 241.6 and 239.7 | Normalised anisotropy (0 nM MN551 = 1, free probe = 0) [1]: 0.6644 and 0.6609 and 0.6309 | Anisotropy [2]: 235.2 and 237 and 232.2 | Normalised anisotropy (0 nM MN551 = 1, free probe = 0) [2]: 0.6467 and 0.6628 and 0.6468 | Fb, fraction bound (MN551 714.286 nM; Cycle 4 (15 min)): 0.8142 and 0.7832 and 0.8111 | Fb, fraction bound (MN551 714.286 nM; Cycle 5 (20 min)): 0.7929 and 0.7648 and 0.7716 | Fb, fraction bound (MN551 714.286 nM; Cycle 6 (25 min)): 0.7718 and 0.7678 and 0.7476 | Anisotropy data 485,520,520 [3]: 249.7 and 242.4 and 244.5 | Fb [3]: 0.7971 and 0.8141 and 0.8669 | Fb, fraction bound [3]: 0.7417 and 0.7594 and 0.7543 | Anisotropy [4]: 252.5 and 250.3 and 249 | Anisotropy data 485,520,520 [4]: 248.4 and 243 and 240.7 | Fb [4]: 0.7809 and 0.8055 and 0.8758 and 0.7671 and 0.7269 and 0.741 | Anisotropy [5]: 251.7 and 248.5 and 246.5 | Anisotropy data 485,520,520 [5]: 247.1 and 241.1 and 241 | Fb [5]: 0.765 and 0.8067 and 0.8399 and 0.7665 and 0.7044 and 0.7135 | Anisotropy [6]: 249.6 and 248.6 and 245.3 | Anisotropy data 485,520,520 [6]: 244.8 and 240.9 and 237.3 | Fb [6]: 0.7881 and 0.7625 and 0.8742 and 0.7462 and 0.721 and 0.7103 | Anisotropy [7]: 247.4 and 247 and 246.2 | Anisotropy data 485,520,520 [7]: 240.4 and 237.5 and 238.1 | Fb [7]: 0.7309 and 0.7174 and 0.7362 | Fb (MN551 714.286 nM; Cycle 11 (50 min); column head blank in this cycle): 0.753 and 0.7838 and 0.8332 | Anisotropy (MN551 714.286 nM; Cycle 12 (55 min); n=1): 240.5 and 233.8 and 234.5 | Anisotropy (MN551 714.286 nM; Cycle 13 (60 min)): 243.7 and 242.5 and 239.6 | Anisotropy [8]: 237.3 and 232.8 and 234.9 | Anisotropy based on Raw Data (485) [8]: 247.7 and 245.6 and 245.2 | Anisotropy [9]: 240.4 and 233.7 and 232.7 | Anisotropy based on Raw Data (485) [9]: 246.3 and 243.7 and 244.2 | Anisotropy [10]: 234.2 and 233.9 and 231.4 | Anisotropy based on Raw Data (485) [10]: 246.6 and 241.1 and 241 | Anisotropy [11]: 233.1 and 230.4 and 229.7 | Anisotropy based on Raw Data (485) [11]: 243.9 and 243.5 and 239.6 | Anisotropy data 485,520,520 (MN551 714.286 nM; Cycle 20 (95 min); n=1): 233.9 and 232.3 and 229.3 | Fb (MN551 781.25 nM, Cycle 7 (30 min)): 0.7388 and 0.8119 and 0.7637 | Anisotropy based on Raw Data (485) [12]: 263.9 and 261.2 and 257.6 | Fb [12]: 0.734 and 0.7973 and 0.7717 | Anisotropy based on Raw Data (485) [13]: 259.6 and 259.9 and 257.2 | Fb [13]: 0.6944 and 0.8002 and 0.7768 | Anisotropy based on Raw Data (485) [14]: 259.1 and 258.8 and 254.4 | Fb [14]: 0.6913 and 0.7833 and 0.7715 | Anisotropy (MN551 781.25 nM, Cycle 13 (60 min), n=1): 253.1 and 252.5 and 251.1 | Anisotropy (MN551 781.25 nM, Cycle 14 (65 min), n=1): 252.9 and 251.3 and 247.3 | Anisotropy (MN551 781.25 nM, Cycle 15 (70 min), n=1): 250.1 and 248.5 and 246.3 | Anisotropy (MN551 781.25 nM, Cycle 16 (75 min), n=1): 249.4 and 246.8 and 244.5 | Anisotropy (MN551 781.25 nM, Cycle 17 (80 min), n=1): 245.8 and 245 and 243.4 | Anisotropy (MN551 781.25 nM, Cycle 18 (85 min), n=1): 245.1 and 243.2 and 240.3 | Fb, fraction bound (MN551 781.25 nM; Cycle 4 (15 min)): 0.8687 and 0.8686 and 0.8309 | Fb, fraction bound (MN551 781.25 nM; Cycle 5 (20 min)): 0.8321 and 0.8721 and 0.8284 | Fb [15]: 0.859 | Fb, fraction bound [15]: 0.8392 and 0.8593 and 0.8155 | Anisotropy data 485,520,520 [16]: 259.9 and 262.5 and 265.9 | Fb [16]: 0.8484 and 0.8402 and 0.8905 | Fb, fraction bound [16]: 0.8272 and 0.8447 and 0.8254 | Anisotropy [17]: 262.2 and 260.4 and 261.8 | Anisotropy data 485,520,520 [17]: 258.5 and 261.9 and 262 | Fb [17]: 0.8192 and 0.8263 and 0.8481 and 0.8337 and 0.8121 and 0.8329 | Anisotropy [18]: 262.4 and 260.9 and 259.7 | Anisotropy data 485,520,520 [18]: 255.4 and 257.4 and 259.2 | Fb [18]: 0.8086 and 0.7984 and 0.8282 and 0.8255 and 0.8299 and 0.8242 | Anisotropy [19]: 257.2 and 257.1 and 255.4 | Anisotropy data 485,520,520 [19]: 254.7 and 257 and 260.1 | Fb [19]: 0.816 and 0.8042 and 0.845 and 0.7833 and 0.8081 and 0.7888 | Anisotropy [20]: 255.5 and 256.4 and 252.8 | Anisotropy based on Raw Data (485) [20]: 259 and 256.7 and 252.9 | Anisotropy (MN551 781.25 nM; Cycle 11 (50 min); n=1): 251 and 254.5 and 254.7 | Anisotropy [21]: 249.8 and 253.4 and 255.1 | Anisotropy based on Raw Data (485) [21]: 257 and 255 and 249.4 | Anisotropy [22]: 247.8 and 252.2 and 252.5 | Anisotropy based on Raw Data (485) [22]: 253.5 and 254 and 249.2 | Anisotropy [23]: 246.6 and 249.8 and 252.1 | Anisotropy based on Raw Data (485) [23]: 255 and 251.5 and 247 | Anisotropy [24]: 245 and 249.1 and 251.2 | Anisotropy based on Raw Data (485) [24]: 251.7 and 252.7 and 245.9 | Anisotropy [25]: 241.6 and 246.3 and 245.8 | Anisotropy based on Raw Data (485) [25]: 251.7 and 249.2 and 242.7 | Anisotropy data 485,520,520 (MN551 781.25 nM; Cycle 19 (90 min); n=1): 243.7 and 241.8 and 238.9 | Anisotropy data 485,520,520 (MN551 781.25 nM; Cycle 20 (95 min); n=1): 243.3 and 240.7 and 237.1 | Fb (MN551 1000 nM, Cycle 7 (30 min)): 0.631 and 0.6514 | Fb (MN551 1000 nM, Cycle 8 (35 min)): 0.6552 and 0.6115 and 0.6373
